Consider 1 substance from paper PMC6525164.

By UniProt entry, the sequences of proteins in these tests, tags left out.
UniProt P35222: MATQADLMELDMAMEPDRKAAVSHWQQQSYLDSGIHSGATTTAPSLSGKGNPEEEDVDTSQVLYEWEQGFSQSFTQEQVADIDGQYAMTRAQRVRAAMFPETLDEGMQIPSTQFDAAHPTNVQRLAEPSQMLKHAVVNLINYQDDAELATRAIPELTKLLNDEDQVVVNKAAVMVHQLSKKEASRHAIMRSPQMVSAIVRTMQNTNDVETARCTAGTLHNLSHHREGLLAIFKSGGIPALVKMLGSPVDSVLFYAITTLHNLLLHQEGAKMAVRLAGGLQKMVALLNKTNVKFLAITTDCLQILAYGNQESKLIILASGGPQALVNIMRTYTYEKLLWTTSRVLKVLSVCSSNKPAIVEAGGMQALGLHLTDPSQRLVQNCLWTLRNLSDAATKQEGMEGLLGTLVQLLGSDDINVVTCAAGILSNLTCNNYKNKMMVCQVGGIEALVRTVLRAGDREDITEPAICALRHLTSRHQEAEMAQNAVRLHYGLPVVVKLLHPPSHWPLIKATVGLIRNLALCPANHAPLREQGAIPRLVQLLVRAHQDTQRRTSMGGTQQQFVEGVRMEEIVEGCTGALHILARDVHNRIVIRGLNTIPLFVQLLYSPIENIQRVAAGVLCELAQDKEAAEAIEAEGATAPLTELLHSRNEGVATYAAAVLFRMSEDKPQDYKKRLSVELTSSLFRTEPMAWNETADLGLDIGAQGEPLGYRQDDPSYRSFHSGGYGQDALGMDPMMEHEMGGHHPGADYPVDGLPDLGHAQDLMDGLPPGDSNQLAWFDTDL
UniProt P46940: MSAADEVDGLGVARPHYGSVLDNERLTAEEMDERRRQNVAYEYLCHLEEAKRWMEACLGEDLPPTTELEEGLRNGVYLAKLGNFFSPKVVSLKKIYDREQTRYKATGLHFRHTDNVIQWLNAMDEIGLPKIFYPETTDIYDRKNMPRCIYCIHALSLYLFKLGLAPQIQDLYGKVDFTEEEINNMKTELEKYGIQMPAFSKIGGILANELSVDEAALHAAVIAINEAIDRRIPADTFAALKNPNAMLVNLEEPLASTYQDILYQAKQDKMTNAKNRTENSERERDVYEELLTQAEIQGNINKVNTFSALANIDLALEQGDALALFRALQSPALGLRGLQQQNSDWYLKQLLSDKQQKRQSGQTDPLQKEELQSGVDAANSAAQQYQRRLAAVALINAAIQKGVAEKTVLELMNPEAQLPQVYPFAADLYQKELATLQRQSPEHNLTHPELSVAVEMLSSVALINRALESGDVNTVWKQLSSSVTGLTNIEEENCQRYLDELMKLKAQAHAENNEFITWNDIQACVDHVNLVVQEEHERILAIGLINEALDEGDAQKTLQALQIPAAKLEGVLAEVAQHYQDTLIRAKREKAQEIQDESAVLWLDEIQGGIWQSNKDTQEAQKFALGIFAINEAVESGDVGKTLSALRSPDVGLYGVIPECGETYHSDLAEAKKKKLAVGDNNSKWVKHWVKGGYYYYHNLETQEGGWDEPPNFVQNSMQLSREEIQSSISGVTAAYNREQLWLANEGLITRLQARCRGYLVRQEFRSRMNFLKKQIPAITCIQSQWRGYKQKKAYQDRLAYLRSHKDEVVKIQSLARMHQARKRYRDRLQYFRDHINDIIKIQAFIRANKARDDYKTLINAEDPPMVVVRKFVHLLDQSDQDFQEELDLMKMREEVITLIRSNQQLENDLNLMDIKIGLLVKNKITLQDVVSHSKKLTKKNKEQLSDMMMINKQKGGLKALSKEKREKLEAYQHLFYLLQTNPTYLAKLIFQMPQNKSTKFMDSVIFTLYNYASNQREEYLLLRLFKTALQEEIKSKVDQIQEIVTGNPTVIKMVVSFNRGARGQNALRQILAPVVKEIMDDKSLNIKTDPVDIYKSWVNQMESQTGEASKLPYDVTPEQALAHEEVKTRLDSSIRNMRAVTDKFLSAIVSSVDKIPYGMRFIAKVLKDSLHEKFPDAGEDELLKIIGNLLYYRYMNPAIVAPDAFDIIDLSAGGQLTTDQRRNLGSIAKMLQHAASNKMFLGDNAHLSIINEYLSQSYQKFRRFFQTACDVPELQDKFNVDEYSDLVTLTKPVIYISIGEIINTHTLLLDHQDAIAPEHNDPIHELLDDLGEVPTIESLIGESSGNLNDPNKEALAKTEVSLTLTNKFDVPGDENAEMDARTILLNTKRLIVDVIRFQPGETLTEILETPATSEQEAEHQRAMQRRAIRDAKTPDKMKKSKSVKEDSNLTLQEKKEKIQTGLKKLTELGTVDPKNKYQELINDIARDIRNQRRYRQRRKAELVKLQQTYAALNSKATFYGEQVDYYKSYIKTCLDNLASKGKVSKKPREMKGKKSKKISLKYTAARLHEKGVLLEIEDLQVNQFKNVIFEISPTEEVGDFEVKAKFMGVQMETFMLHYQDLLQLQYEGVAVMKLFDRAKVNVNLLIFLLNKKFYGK

The experiment addresses β-catenin (human (endogenous in SW1990, CFPAC-1)) (UniProt P35222). Description: co-IP; endogenous proteins in non-transfected HEK293T, SW1990 and CFPAC-1 cells; for DVL2 with β-catenin also SW1990 and CFPAC-1 cells with knock-down of IQGAP1 (interaction reduced); which protein was precipitated is not given.

These are yes or no findings as the source states them, for the method shown. In cells and extracts the contact can be indirect. Some entries that bind do so weakly or less than the wild type.

For “IQ motif-containing GTPase-activating protein 1 (from UniProt P46940 1-1657)”, the binding result was “binds”.
